Source: patent US20130280736A1
No constants are given. Whether binding was seen depends on the method and setting. Binding can be weak; no strength is given.

How the values were obtained:
HIF-1αP564R (human) [1] = test: immunofluorescence on HEK 293 cells transfected with HIF1α mut P564
HIF-1αP402R (human) [2] = test: immunofluorescence on HEK 293 cells transfected with HIF1α mut P402
HIF-1αP564R (human) [3] = test: Western blot of lysates of transfected HEK293 cells, β-actin as loading control
HIF-1αP402R (human) [4] = test: as above

Measured: binding

B1: monoclonal antibody clone 7D6 (antibody, V domains shown)
VH: EVQLVESGGGLVKPGGSLKLSCAASGFTFSSYAMSWVRQTPEKRLEWVAAISYGGNYTYYPDSVKGRFTVSRDNAKNTLYLQMSSLRSEDTAMYYCARRARAEYYYAMDYWGQGTSVTVSS
VL: DVLMTQTPLSLPVSLGDQASISCKSSQSIVHSNGNTYLEWYLQKPGQPPKVLIYKVSNRFSGVPDRFSGSGSGTDSTLKISRVEAEDLGLYYCFQGSHVPWTFGGGTKLEI
binds: all assays above
